Among the data in paper PMC7615741 are binding values, retold here.

Results are given in words; binding and its absence hold for the method and conditions named. Some entries that bind do so weakly or less than the wild type. Tags and fused reporters may be left off the sequences shown.

The assay concerns the target T1, AtEH1FL-GFP (A. thaliana) (UniProt Q9LM78).
T1 sequence: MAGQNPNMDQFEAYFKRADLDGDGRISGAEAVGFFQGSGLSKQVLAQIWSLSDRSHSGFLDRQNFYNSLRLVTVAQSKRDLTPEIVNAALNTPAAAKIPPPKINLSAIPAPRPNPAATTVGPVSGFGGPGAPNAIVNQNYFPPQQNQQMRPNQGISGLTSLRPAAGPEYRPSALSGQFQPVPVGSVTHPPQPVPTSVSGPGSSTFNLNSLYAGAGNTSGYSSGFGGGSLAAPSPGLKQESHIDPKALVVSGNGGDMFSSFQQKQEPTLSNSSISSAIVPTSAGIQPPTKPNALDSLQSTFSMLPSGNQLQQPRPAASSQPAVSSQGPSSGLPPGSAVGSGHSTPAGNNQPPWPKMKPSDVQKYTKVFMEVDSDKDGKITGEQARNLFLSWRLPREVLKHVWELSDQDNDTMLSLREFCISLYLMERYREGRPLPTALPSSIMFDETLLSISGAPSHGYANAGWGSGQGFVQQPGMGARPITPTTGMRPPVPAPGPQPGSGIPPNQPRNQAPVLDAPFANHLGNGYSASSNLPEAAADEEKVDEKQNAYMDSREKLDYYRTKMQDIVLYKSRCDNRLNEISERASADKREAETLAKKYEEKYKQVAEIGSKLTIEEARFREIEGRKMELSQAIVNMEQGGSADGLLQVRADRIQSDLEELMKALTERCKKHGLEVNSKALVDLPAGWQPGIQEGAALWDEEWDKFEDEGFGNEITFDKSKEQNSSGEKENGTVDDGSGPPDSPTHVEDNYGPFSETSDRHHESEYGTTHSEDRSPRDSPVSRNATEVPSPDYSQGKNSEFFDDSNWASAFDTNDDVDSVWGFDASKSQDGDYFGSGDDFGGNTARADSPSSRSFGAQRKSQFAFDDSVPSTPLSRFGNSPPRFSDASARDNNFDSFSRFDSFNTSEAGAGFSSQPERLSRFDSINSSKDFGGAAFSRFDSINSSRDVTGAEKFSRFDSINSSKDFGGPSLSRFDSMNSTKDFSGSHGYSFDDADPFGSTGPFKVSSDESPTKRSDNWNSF
The assay is described as follows: partitioning assay (confocal microscopy of condensates in cells); scaffold AtEH1-GFP (FL or ΔIDR3) co-expressed with client-mScarlet in N. benthamiana epidermal cells; partitioning coefficient at AtEH1 positive foci (MitoTally script).

B1: TOL6-mScarlet (protein, UniProt O80910 1-671)
chain: MASSSASATVAVDKATSDLLLGPDWTTNMEICDSVNSLHWQAKDVVKAVKKRLQHKSSRVQLLALTLLETLVKNCGDYLHHQVAEKNILGEMVKIVKKKADMQVRDKILVMVDSWQQAFGGPEGKYPQYYWAYDELRRSGVEFPRRSPDASPIITPPVSHPPLRQPQGGYGVPPAGYGVHQAGYGVPQAGYGIPQAGYGVPQAGYGIPQVGYGMPSGSSRRLDEAMATEVEGLSLSSIESMRDVMDLLGDMLQAVDPSDREAVKDEVIVDLVERCRSNQKKLMQMLTSTGDDELLGRGLDLNDSLQILLAKHDAIASGSPLPVQASGSPLSVQASKPADSSPKSSEAKDSSSIAGSSSPIPATVSTGKSPIDEEYEEEEDEFAQLARRHSKPPASVTTDPTSLESHNAASNALALALPDPPPPVNTTKEQDMIDLLSITLCTPSTPPAPSSQPSPPPPAGSDQNTHIYPQPQPRFDSYVAPWAQQQQPQQPQAQQGYSQHQQHQQQQGYSQPQHSQQQQGYSQLQQPQPQQGYSQSQPQAQVQMQPSTRPQNPYEYPPPPWASTSANAYYTPRANASASYTDTSALAGRSLQQSNSFPTRAGDPQATSTASNSGVSVGQKPFVPSYRLFEDLDVFGSADGKHNKPANSSNGSQNLSGSQTQQSMIGGRKMI
For the molecule B1, the binding result is “binds”.

B2: TOL9-mScarlet (protein, UniProt Q8L860 1-675)
chain: MVNAMVERATSEMLIGPDWAMNLEICDMLNSDPAQAKDVVKGIKKRIGSRNPKAQLLALTLLETIVKNCGDMVHMHVAEKGVIHEMVRIVKKKPDFHVKEKILVLIDTWQEAFGGPRARYPQYYAGYQELLRAGAVFPQRSERSAPVFTPPQTQPLTSYPPNLRNAGPGNDVPEPSAEPEFPTLSLSEIQNAKGIMDVLAEMLSALEPGNKEDLKQEVMVDLVEQCRTYKQRVVHLVNSTSDESLLCQGLALNDDLQRVLTNYEAIASGLPGTSSQIEKPKSETGKSLVDVDGPLIDTGDSSNQANGATSSSGNGVLNQLALPAPPVTNGSANSKIDLLSGDDLALVPVGPPQPASPVASDQNALALIDMFSDNTNNPSPATAPSGNPAQNIPLNPQGHQQPNSQAGEAGLQQSNGFAPQVGYSQFEQPSYGQGVSSPWSSQPAQQPVQPSYGAQDSTAFPPPPWEAQLQDYSPSAESGSPFSPGMHPTQTAFTHAQPVNNNNPYPQIPQTGPPVNNNSPYAQMPQTGQAVANISPYPQIPQNGVYMPNQPNQALGSGYQPQQQQQQQMMMAQYYAQQQQLQQQQQQQAYGNQMGGYGYGYNQQQQGSSPYLDQQMYGLSMRDQTSHQVASSSSTTSYLPPMKPKNKPEDKLFGDLVDISKFKPTKPTSGRAGTM
On to B2, for which the binding result is given as “binds”.

B3: AUXL1-mScarlet (protein, UniProt Q9SU08 1-904)
chain: MDDFTGLLARDFGLKPQGKSAPMASQSNSSAADFNTFASSYSFATAAGKKSDSLPVFDDPGRDGDDLLFKDVFSGPPPPKYGSSSGDSRSPSAPAFDYDAMFKEPKSKSASSMPVYDKPVYDDEDVFESIPELKIPSTSSQSARFENVFSSISSSPTKHRKQNSSPFDDLMGNNLGKKGADSDREEKGSSIFDDLIPGFGRTSSPPSKRTTSETTNQSEKAPYRTAETSSNVEEDPFVVLEESESTPREPSRTDPLDDIGKFNSRKTDHSSVHGGVFVDIDPLDNLGKPGPDMNSKGKSHLRPPGNISGSQSPPVESPGSYHSKKVSFEDFLEPHNMSTPPPTNSNGSFESSDDVWLTVSEIPLFTQPTSAPPPTRPPPPRPTRPIKKKVNEPSIPTSAYHSHVPSSGRASVNSPTASQMDELDDFSIGRNQTAANGYPDPSSGEDSDVFSTAAASAAAMKDAMDKAEAKFRHAKERREKENLKASRSREGDHTENYDSRERELREKQVRLDRERAEREAEMEKAQEREKEEREREQKRIERERERLVARQAVERATREARERAATEAHAKVQRAAVGKATDARERAERAAVQRAHAEARERAAAGARDKAAKAAAEAREKAEKAAAEAKERANAEAREKETRVRAERAAVERAAAEARGRAAAQAKAKQQQENTNDLDSFFSSISRPNSAPRQRTNPLDPFQDSWNKGGSFESSRESLRVPPGQPENLRKTSSVTNIVDDLSSIFGASASQSGGFQDVDGETEERRRARLERHQRTQERAAKALAEKNERDLQVQREQVEKDRIGVTLDVEIKRWGAGKEGNLRALLSTLQYVLWPECGWQPVSLTDLITAASVKKVYRKATLCIHPDKVQQKGANLQQKYIAEKVFDMLKEAWNKFNSEELF
B3: the binding result is on record as “binds”.

B4: DRP2a-mScarlet (protein, UniProt Q9SE83 1-914)
chain: MEAIDELSQLSDSMKQAASLLADEDPDETSSSKRPATFLNVVALGNVGAGKSAVLNSLIGHPVLPTGENGATRAPIIIELSRESSLSSKAIILQIDNKSQQVSASALRHSLQDRLSKGASGKNRDEINLKLRTSTAPPLKLVDLPGLDQRIVDESMIAEYAQHNDAILLVIVPASQASEISSSRALKIAKEYDPESTRTIGIIGKIDQAAENSKALAAVQALLSNQGPPKTTDIPWVAVIGQSVSIASAQSGSGENSLETAWRAESESLKSILTGAPQSKLGRIALVDTLASQIRSRMKLRLPSVLSGLQGKSQIVQDELARLGEQLVNSAEGTRAIALELCREFEDKFLLHLAGGEGSGWKVVASFEGNFPNRIKQLPLDRHFDLNNVKRVVLEADGYQPYLISPEKGLRSLIKIVLELAKDPARLCVDEVHRVLVDIVSASANATPGLGRYPPFKREVVAIASAALDGFKNEAKKMVVALVDMERAFVPPQHFIRLVQRRMERQRREEELKGRSSKKGQDAEQSLLSRATSPQPDGPTAGGSLKSMKDKPSPQDKETPEVSGLKTAGPEGEITAGYLMKKSAKTNGWSRRWFVLNEKTGKLGYTKKQEERNFRGTITLEECTIEEIPEDEVEKSKSSKDKKANGPDSKGPGLVFKITCKVPYKTVLKAHNALVLKAESVVDKNEWINKLQKVIQARGGQVGSVSMRQSLSEGSLDKMVRKPIDPEEELRWMSQEVRGYVEAVLNSLAANVPKAVVLCQVEKAKEDMLNQLYSSISAIGNERIESLIQEDQNVKRRRERYQKQSSLLSKLTRQLSIHDNRAAAASSYSDNSGTESSPRASGGSSGDDWMNAFNSAANGPSDSLSKYGSGGHSRRYSDPAQNGDAASPGSGSNRRTTPNRLPPAPPPTGSAYRY
Consider B4, for which the binding result is “binds”.

B5: Med15a (mScarlet tagged) (protein, UniProt F4I171 1-1335)
chain: MDNNNWRPSLPNGEPAMDTGDWRTQLPPDSRQKIVNKIMETLKKHLPFSGPEGINELRRIAARFEEKIFSGALNQTDYLRKISMKMLTMETKSQNAAGSSAAIPAANNGTSIDSIPTNQGQLLPGSLSTNQSQAPQPLLSQTMQNNTASGMTGSTALPSSMPPVSSITNNNTTSVVNQNANMQNVAGMLQDSSGQHGLSSNMFSGPQRQMLGRPHAMSSQQQQQPYLYQQQLQQQLLKQNFQSGNVPNPNSLLPSHIQQQQQNVLQPNQLHSSQQPGVPTSATQPSTVNSAPLQGLHTNQQSSPQLSSQQTTQSMLRQHQSSMLRQHPQSQQASGIHQQQSSLPQQSISPLQQQPTQLMRQQAANSSGIQQKQMMGQHVVGDMQQQHQQRLLNQQNNVMNIQQQQSQQQPLQQPQQQQKQQPPAQQQLMSQQNSLQATHQNPLGTQSNVAGLQQPQQQMLNSQVGNSSLQNNQHSVHMLSQPTVGLQRTHQAGHGLYSSQGQQSQNQPSQQQMMPQLQSHHQQLGLQQQPNLLQQDVQQRLQASGQVTGSLLPPQNVVDQQRQLYQSQRTLPEMPSSSLDSTAQTESANGGDWQEEVYQKIKSMKETYLPDLNEIYQRVAAKLQQDSMPQQQRSDQLEKLRQFKTMLERMIQFLSVSKSNIMPALKDKVAYYEKQIIGFLNMHRPRKPVQQGQLPQSQMQPMQQPQSQTVQDQSHDNQTNPQMQSMSMQGAGPRAQQSSMTNMQSNVLSSRPGVSAPQQNIPSSIPASSLESGQGNTLNNGQQVAMGSMQQNTSQLVNNSSASAQSGLSTLQSNVNQPQLSSSLLQHQHLKQQQDQQMQLKQQFQQRQMQQQQLQARQQQQQQQLQARQQAAQLQQMNDMNDLTSRQGMNVSRGMFQQHSMQGQRANYPLQQLKPGAVSSPQLLQGASPQMSQHLSPQVDQKNTVNKMGTPLQPANSPFVVPSPSSTPLAPSPMQVDSEKPGSSSLSMGNIARQQATGMQGVVQSLAIGTPGISASPLLQEFTSPDGNILNSSTITSGKPSATELPIERLIRAVKSISPQALSSAVSDIGSVVSMVDRIAGSAPGNGSRASVGEDLVAMTKCRLQARNFMTQEGMMATKKMKRHTTAMPLSVASLGGSVGDNYKQFAGSETSDLESTATSDGKKARTETEHALLEEIKEINQRLIDTVVEISDDEDAADPSEVAISSIGCEGTTVRFSFIAVSLSPALKAHLSSTQMSPIQPLRLLVPCSYPNGSPSLLDKLPVETSKENEDLSSKAMARFNILLRSLSQPMSLKDIAKTWDACARAVICEYAQQFGGGTFSSKYGTWEKYVAAS
Regarding B5, the binding result is “binds”.
